From PubChem BioAssay AID493014 (National Center for Advancing Translational Sciences (NCATS), 2011)
The other results are listed elsewhere or left out. The main result of the screen is listed elsewhere. These columns were measured beside it and carry no call. Compounds called inactive in the main read-out are mostly missing here. Potencies come from curve fits of mixed quality, noted in brackets.

Test: qHTS Assay to Find Inhibitors of Chronic Active B-Cell Receptor Signaling
Conditions: ABC-DLBCL IkBa-CBG/CBR reporter, luminescence ratio (green luciferase fused to IkBa over red control in TMD8 lymphoma cells), 4 h
Summary of the method: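 Doxycycline induced both beetle luciferases in TMD8 lymphoma cells; IKK-driven degradation limits the IkappaBalpha-fused green signal, while red luminescence normalises for cell number and nonspecific effects. Compounds tested up to 46 uM, 4 hrs.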

[1] = measured here: CBR red luminescence, cell number
[2] = measured here: IkBa-CBG green luminescence

Row | Structure (SMILES) | AC50 [1] | AC50 [2]
1 | COc1ccc(N2CCN(C(=O)c3cc4cc(Cl)ccc4[nH]3)CC2)cc1 | 22.4 µM [falling, single point] | 
2 | O=C(Oc1ccc(Br)cc1)c1cccnc1 | 35.5 µM [rising, single point] | 
3 | CCN(CC)CCCNc1nc(N)c([N+](=O)[O-])c(NCCO)n1 | 31.6 µM [falling, single point] | 
4 | Cc1cccn2c(=O)nc(SCC(=O)c3ccccc3)nc12 | 1.03 µM [falling, full curve] | 
5 | CC(=O)Nc1ccc(Cc2nc3c([nH]2)c(=O)n(C)c(=O)n3C)cc1 | 8.91 µM [falling, partial curve] | 
6 | [S-]C(=Nc1ccc(Cl)cc1)N[n+]1ccccc1 | 29.1 µM [falling, single point] | 
7 | O=C(c1cccnc1)N1CCC(Oc2ccc(C(=O)N3CCCCO3)cc2)CC1 | 6.31 µM [rising, single point] | 
8 | COc1ccc(OC)c(/C=C2\S/C(=N/NC(=O)c3ccc4ccccc4c3)NC2=O)c1 | 18.4 µM [rising, partial curve, poor fit] | 
9 | Cc1ccc(C)c(-c2nnc(NC(=O)CS(=O)(=O)c3ccccc3)o2)c1 | 29.1 µM [falling, single point] | 
10 | O=C(Cc1ccc(-c2ccccc2)cc1)OCC(=O)N1CCCC1=O | 7.94 µM [falling, partial curve] | 
11 | Cc1cc(N(C)C)c(C#N)c(N2CCCCC2)n1 | 15.8 µM [rising, partial curve, poor fit] | 
12 | O=C(Nc1ccccc1OC(F)F)c1ccccc1 | 25.9 µM [rising, single point] | 
13 | CCOC(=O)N1CCc2c(sc(NCc3cccc(F)c3)c2C(=O)Nc2ccc(OCC)cc2)C1 | 31.6 µM [falling, single point] | 
14 | COc1ccc(C(=O)NCCNc2nc3cc(C)c(C)cc3cc2C)cc1 | 3.16 µM [rising, partial curve, poor fit] | 
15 | O=C(Nc1nnc(-c2cccs2)o1)c1cccc(C(F)(F)F)c1 | 11.6 µM [falling, partial curve] | 32.6 µM [falling, partial curve, poor fit]
16 | O=C(CNC(=O)c1ccc(Br)o1)Nc1ncccc1O | 13 µM [falling, partial curve] | 
17 | COc1ccc(CC(=O)N(C)CC(=O)Nc2c(C)cccc2C)cc1S(=O)(=O)N1CCOCC1 | 29.1 µM [rising, single point] | 
18 | CSc1ccc(Cl)c(C(=O)Nc2nccs2)c1 | 4.47 µM [falling, full curve, poor fit] | 
19 | CSCCC(NC(=O)OC(C)(C)C)C(=O)Oc1ccc2c(=O)c(-c3ccc4c(c3)OCCO4)coc2c1 (stereo not drawn) | 3.98 µM [falling, full curve] | 
20 | COCCNC(=O)C(c1cccs1)N(CCc1ccccc1)C(=O)Cn1nnc2ccccc21 (stereo not drawn) | 29.1 µM [falling, single point] | 
21 | N#CC1=C(N)NC(SCC(=O)Nc2ccc(Br)cc2)=C(C#N)C12CCCCC2 | 16.4 µM [falling, single point] | 

Row | Structure (SMILES) | AC50 [1] | AC50 [2]
22 | O=C(O)CCC(=O)/C=C/c1ccccc1 | 35.5 µM [falling, single point] | 
23 | CC(OC(=O)C1CCN(c2ccc(C(F)(F)F)cn2)CC1)C(=O)Nc1cccc([N+](=O)[O-])c1 (stereo not drawn) | 10.3 µM [falling, partial curve, poor fit] | 
24 | O=C1N2c3ccccc3CCc3cccc(c32)C1(O)C(F)(F)F (stereo not drawn) | 6.51 µM [falling, single point] | 
25 | O=c1[nH]c2ccccc2c(O)c1Cc1ccccc1 | 0.631 µM [falling, full curve, poor fit] | 
26 | CCOC(=O)CNC(=O)c1sc(NC(=O)c2ccccc2F)nc1C | 10 µM [falling, partial curve, poor fit] | 
27 | COc1ccc(NC(=O)c2cccnn2)cc1 | 5.62 µM [falling, single point] | 3.98 µM [rising, partial curve, poor fit]
28 | O=C(NC(=S)Nc1ccc(N2CCCCC2)cc1)c1cccs1 | 25.9 µM [rising, partial curve, poor fit] | 
29 | O=[N+]([O-])c1cccc(/C=N/N=C\c2ccccc2)c1 | 2.82 µM [rising, full curve] | 
30 | CCn1c(/C=C2\C(=O)N(C(C)C)c3ccccc32)nc2ccccc2c1=O | 20 µM [falling, single point] | 
31 | Cc1cc(OCC(=O)Nc2ccc3oc(=O)ccc3c2)ccc1Cl | 5.62 µM [falling, single point] | 
32 | Cc1noc(NC(=O)c2ccc(Cl)cc2)c1Cl | 3.55 µM [rising, full curve, poor fit] | 
33 | O=C(N/C=C/c1ccc(Cl)cc1)NCc1ccc(Cl)cc1 | 4.47 µM [falling, full curve, poor fit] | 
34 | O=C(C[C@H]1C[C@H](C(=O)N2CCOCC2)[C@@]2(CCC3CCCC3)c3[nH]c4ccc(Cl)cc4c3CCN2C1=O)NCCCn1ccnc1 | 20.6 µM [falling, single point] | 
35 | O=C(Nc1nnc(Cc2ccc([N+](=O)[O-])cc2)s1)Nc1ccccc1F | 35.5 µM [rising, single point] | 
36 | O=C(CSc1nnc(-c2cccs2)o1)c1cccs1 | 25.1 µM [falling, single point] | 
37 | O=C(c1cccs1)N1CCCC(c2nc3c(nnn3Cc3ccccc3)c(=O)[nH]2)C1 (stereo not drawn) | 3.55 µM [falling, single point] | 
38 | Cn1c(N2CCOCC2)nc2c1c(=O)n(Cc1ccc(Cl)c(Cl)c1)c(=O)n2C | 6.51 µM [falling, single point] | 
39 | CN(C)S(=O)(=O)c1ccc(NC(=O)COC(=O)c2ccccn2)cc1 | 6.31 µM [falling, single point] | 
40 | CCn1c(=O)n(CC)c2cc(NC(=O)c3ccccc3Cl)ccc21 | 10 µM [falling, partial curve] | 
41 | CCOC(=O)Cc1csc(NC(=O)C(NC(=O)C2CCC(C)CC2)C(C)C)n1 (stereo not drawn) | 17.8 µM [falling, single point] | 

Random excerpt: two records from the list, in no set order.
Row | Structure (SMILES) | AC50 [1] | AC50 [2]
37 | O=C(c1cccs1)N1CCCC(c2nc3c(nnn3Cc3ccccc3)c(=O)[nH]2)C1 (stereo not drawn) | 3.55 µM [falling, single point] | 
27 | COc1ccc(NC(=O)c2cccnn2)cc1 | 5.62 µM [falling, single point] | 3.98 µM [rising, partial curve, poor fit]
